These are yes or no findings as the source states them, for the method shown. Binding seen in cells or lysates may run through a third protein. Some results given as binding are weak or reduced against the parent protein; the word gives no strength. For part of these data: Tags and fused reporters may be left off the sequences shown. Values belong to the binder of their own block, whether it stands above or below them.
Key:
[1] = target: T1, KDM2A (human (endogenous in MCF7)) (UniProt Q9Y2K7); test: co-IP; 200 µg MCF7 lysate (Nonidet P-40 lysis) precipitated with 2 µg rabbit polyclonal KDM2A antibody, anti-rabbit IgG as control; western blot for Rb and E2F1; cells serum starved 48 hr and stimulated with serum for 0 to 8 hr
T1 sequence: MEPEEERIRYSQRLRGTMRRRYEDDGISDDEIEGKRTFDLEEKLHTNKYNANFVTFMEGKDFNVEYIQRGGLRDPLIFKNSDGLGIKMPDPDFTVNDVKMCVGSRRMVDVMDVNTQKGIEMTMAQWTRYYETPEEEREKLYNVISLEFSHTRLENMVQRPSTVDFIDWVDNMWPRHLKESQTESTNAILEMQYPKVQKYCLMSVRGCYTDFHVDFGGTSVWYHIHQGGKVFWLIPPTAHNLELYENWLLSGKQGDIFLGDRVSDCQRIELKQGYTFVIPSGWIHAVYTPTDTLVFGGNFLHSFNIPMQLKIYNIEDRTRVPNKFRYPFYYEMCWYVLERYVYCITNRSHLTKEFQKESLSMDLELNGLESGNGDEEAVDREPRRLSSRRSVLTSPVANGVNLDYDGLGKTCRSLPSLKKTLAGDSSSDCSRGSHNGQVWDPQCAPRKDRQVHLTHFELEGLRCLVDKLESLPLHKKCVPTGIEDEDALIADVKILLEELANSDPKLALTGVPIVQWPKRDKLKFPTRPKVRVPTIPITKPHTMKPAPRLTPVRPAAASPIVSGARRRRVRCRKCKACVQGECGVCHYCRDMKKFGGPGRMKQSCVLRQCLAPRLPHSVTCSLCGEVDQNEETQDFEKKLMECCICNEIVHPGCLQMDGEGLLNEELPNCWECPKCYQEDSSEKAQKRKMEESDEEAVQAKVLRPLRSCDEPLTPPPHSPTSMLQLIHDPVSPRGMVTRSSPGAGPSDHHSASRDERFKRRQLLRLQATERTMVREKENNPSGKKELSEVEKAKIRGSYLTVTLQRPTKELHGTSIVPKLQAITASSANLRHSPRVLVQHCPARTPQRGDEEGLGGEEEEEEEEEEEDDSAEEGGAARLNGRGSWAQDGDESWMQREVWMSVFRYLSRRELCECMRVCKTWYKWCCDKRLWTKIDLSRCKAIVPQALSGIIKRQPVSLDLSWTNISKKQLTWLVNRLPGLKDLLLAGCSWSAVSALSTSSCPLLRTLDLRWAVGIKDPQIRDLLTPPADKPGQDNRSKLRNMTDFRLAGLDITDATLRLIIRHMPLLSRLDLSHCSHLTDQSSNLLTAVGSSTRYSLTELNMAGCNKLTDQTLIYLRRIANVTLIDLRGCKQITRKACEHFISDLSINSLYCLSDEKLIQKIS

Chains of the proteins cited; added tags and fusions are not shown.
UniProt Q01094: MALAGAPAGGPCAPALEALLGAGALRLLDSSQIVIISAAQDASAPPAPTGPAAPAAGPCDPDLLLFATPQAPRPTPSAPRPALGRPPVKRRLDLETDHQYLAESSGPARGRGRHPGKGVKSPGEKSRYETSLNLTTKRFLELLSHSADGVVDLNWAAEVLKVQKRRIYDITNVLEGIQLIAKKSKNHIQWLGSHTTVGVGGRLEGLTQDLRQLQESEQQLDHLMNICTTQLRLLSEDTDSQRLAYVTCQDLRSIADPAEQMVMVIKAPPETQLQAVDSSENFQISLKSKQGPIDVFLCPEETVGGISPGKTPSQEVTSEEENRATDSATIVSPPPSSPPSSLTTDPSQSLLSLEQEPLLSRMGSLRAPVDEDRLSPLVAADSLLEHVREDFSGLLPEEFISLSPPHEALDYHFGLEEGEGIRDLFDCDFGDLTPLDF

[2] = target: GST-E2F1 (UniProt Q01094); test: pull-down; GST, GST-Rb or GST-E2F1 on glutathione-Sepharose beads; 10 µl of 35S-labeled KDM2A reticulocyte lysate; protein-binding buffer, 2 hr at 4°C, six washes; SDS-PAGE and autoradiography; only the target purified
[3] = target: T2, GST-Rb (UniProt P06400); test: as above
T2 sequence: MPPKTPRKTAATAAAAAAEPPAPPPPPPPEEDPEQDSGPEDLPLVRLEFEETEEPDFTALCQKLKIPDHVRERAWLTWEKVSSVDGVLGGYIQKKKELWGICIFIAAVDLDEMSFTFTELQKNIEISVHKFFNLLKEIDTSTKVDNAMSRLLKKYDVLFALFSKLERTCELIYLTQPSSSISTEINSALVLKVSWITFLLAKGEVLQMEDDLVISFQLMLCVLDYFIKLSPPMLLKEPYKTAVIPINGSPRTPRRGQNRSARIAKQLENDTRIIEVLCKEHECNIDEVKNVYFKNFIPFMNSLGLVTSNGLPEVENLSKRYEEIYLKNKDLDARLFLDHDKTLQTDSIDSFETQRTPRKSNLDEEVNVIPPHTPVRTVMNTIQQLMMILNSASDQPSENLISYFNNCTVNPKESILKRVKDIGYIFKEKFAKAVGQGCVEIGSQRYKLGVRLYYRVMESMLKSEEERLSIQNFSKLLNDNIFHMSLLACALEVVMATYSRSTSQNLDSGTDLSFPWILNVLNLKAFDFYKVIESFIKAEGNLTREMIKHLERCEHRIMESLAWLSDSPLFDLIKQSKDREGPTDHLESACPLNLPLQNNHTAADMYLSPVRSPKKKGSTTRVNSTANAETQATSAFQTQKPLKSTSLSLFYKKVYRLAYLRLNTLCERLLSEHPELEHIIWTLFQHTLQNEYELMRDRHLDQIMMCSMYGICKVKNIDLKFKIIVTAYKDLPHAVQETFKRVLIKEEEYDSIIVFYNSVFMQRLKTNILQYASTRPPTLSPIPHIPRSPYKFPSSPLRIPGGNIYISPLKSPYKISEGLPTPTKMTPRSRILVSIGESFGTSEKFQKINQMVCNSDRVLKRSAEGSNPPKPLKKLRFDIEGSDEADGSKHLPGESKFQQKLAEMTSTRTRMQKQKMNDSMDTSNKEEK

- binding [1]: binds
B1: Rb (protein, UniProt P06400 1-928)
chain: T2 sequence

- binding [2]: binds
- binding [3]: binds
B2: 35S-Methionine-labeled KDM2A (protein, UniProt Q9Y2K7 1-1162)
chain: T1 sequence
modifications: 35S-methionine label
